At least one structure is not confirmed: it was looked up by name or label, or the drawing left a doubt. Some of these results come from one statement about several compounds together.
How the values were obtained:
[1] = system: protein asymmetric dimethylarginine (ADMA) in HeLa cells; experiment: Protein ADMA levels in cultured HeLa cells (immunoblot); format: cell-based; settings: 1 h
Experimental: Each group contained the same volume of DMSO and ethanol. After wash with TBS for three times, the cells were lysed with 900 μL RIPA lysis buffer and centrifuged to pellet down the debris. The supernatant was then transferred to a new tube and mixed with equal volume of 2×SDS sample buffer. Ten μL sample solution was for electrophoresis and immunoblotting. The signal of anti-GAPDH was used to adjust the amount of protein loading.
Since Bay 11-7082 inhibited PRMT1 activity in an in vitro assay, we then tested the inhibitory activity of this compound in cultured HeLa cells. The levels of ADMA are regulated by both methylation and demethylation. […] Some proteins of ADMA persisted several days in the absence of PRMT1. […] We also used histone H4R3 asymmetric dimethylation antibody as one kind of pan ADMA antibody (right panel, Supplementary FIG. 5). However, we noticed that the ADMA signals of one or two proteins increased in this experiment possibly due to the compensation activity caused by other PRMT family proteins (39) or disturbance of cell cycle progression affected by other target proteins of Bay 11-7082 (40). It is of interest to note that phenylsulfonyl structure present in Bay 11-7082 is also found in a PRMT1 inhibitor, C-7280948 (41), indicating the Bay 11-7082 could be a good lead compound for developing PRMT1 inhibitors. […]

CHO cells = experiment: Cell cycle behavior of CHO cells; settings: 1 nM to 1 μM
PC-9 cells = experiment: PC-9 xenograft in BALB/c nude mice; settings: 15 days, afatinib group n=10, 10 mg/kg oral daily
γ-H2AX = γ-H2AX levels in CHO cells (DNA damage); settings: 24 h treatment, dose-response
RRM2 [2] = target: T1, RRM2 (Cricetulus griseus, UniProt G3I2K8); experiment: RRM2 protein level in EGFR-null CHO cells; settings: long-term incubation
T1 sequence (G3I2K8 1-390): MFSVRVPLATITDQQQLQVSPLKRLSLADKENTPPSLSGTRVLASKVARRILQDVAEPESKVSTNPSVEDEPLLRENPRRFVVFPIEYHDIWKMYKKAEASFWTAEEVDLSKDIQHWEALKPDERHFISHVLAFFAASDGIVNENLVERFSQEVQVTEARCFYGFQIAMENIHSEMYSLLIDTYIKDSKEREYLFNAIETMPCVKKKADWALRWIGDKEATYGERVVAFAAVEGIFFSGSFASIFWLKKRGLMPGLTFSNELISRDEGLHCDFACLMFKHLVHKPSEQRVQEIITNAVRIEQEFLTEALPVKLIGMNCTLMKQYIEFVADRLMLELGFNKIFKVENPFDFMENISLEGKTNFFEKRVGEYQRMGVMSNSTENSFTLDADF

RRM1 [3] = target: T2, RRM1 (Cricetulus griseus, UniProt G3I3B7); experiment: RRM1 protein level in EGFR-null CHO cells
T2 sequence (G3I3B7 1-792): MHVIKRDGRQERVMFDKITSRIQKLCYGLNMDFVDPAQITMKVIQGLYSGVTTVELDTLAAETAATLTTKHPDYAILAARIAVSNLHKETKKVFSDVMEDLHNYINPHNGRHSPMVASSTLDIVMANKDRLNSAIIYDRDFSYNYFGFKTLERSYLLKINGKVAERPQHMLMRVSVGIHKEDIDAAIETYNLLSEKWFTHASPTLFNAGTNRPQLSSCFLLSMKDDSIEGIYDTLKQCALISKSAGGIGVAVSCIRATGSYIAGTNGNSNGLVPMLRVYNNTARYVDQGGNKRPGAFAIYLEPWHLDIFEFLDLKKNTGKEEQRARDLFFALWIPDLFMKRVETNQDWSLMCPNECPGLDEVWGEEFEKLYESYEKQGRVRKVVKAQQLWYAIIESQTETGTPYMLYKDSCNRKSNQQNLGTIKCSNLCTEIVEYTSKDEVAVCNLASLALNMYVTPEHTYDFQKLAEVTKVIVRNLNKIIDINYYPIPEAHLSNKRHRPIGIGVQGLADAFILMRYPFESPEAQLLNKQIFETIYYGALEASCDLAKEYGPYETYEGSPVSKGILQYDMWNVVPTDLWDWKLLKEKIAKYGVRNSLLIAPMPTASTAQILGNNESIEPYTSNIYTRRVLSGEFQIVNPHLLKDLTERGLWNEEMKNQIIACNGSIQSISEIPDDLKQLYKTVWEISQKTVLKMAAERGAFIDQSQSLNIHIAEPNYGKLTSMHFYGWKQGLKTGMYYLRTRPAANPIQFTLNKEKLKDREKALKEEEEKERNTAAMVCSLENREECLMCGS

RRM2 [4] = target: T3, RRM2 (Homo sapiens, UniProt P31350); experiment: RRM2 protein level in PC-9 cells, long-term afatinib incubation
T3 sequence (P31350 1-389): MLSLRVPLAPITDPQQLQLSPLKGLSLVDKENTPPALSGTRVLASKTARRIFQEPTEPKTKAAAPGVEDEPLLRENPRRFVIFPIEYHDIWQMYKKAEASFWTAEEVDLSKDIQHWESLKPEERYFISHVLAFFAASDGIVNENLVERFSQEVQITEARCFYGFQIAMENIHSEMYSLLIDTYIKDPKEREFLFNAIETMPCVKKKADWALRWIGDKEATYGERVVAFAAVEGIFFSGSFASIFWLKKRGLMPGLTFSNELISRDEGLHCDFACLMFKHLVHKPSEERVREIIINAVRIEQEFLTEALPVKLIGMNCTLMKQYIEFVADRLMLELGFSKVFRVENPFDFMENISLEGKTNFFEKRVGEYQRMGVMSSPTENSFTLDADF

RRM1 [5] = target: T4, RRM1 (Homo sapiens, UniProt P23921); experiment: RRM1 protein level in PC-9 cells, long-term afatinib incubation; settings: 72 h, daily medium replacement, dose-response
T4 sequence (P23921 1-792): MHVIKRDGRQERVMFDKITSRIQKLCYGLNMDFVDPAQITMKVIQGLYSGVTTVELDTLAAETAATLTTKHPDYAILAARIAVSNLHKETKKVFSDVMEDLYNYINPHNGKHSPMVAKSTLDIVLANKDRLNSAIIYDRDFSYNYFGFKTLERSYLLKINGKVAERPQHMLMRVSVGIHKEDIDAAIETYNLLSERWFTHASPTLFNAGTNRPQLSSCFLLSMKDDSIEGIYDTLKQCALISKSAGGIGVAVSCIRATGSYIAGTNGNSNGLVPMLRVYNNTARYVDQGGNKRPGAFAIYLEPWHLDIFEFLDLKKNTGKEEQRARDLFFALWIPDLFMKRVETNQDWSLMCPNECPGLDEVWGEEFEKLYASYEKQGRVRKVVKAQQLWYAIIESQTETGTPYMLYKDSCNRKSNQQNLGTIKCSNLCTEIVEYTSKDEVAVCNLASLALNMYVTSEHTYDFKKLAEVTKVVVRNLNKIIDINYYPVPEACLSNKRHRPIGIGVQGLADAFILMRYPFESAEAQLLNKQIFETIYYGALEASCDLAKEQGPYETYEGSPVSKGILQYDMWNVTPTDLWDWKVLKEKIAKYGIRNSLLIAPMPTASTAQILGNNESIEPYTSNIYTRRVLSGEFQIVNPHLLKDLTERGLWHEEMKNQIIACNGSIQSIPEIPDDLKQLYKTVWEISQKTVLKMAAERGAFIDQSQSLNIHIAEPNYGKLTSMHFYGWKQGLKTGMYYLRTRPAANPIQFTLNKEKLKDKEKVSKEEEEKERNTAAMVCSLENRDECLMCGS

RRM1 [6] = target: T4, RRM1; experiment: Afatinib tagging of recombinant RRM1 (anti-afatinib immunoblot); settings: recombinant protein incubated with afatinib
RRM2 [7] = target: T3, RRM2; experiment: Afatinib tagging of recombinant RRM2 (anti-afatinib immunoblot); settings: recombinant RRM2 alone incubated with afatinib
ribonucleotide reductase = target: T5, ribonucleotide reductase (Homo sapiens, UniProt P23921+P31350); experiment: In vitro RNR activity assay in permeabilized PC-9 cells (dCDP by LC-MS); settings: PC-9 cell lysate, 10 and 100 nM, 1 h
T5 sequence (P23921 1-792): T4 sequence (P23921 1-792)
T5 sequence (P31350 1-389): T3 sequence (P31350 1-389)

For Cc1ccc(S(=O)(=O)/C=C/C#N)cc1 [Bay 11-7082], the “concentration leading to decline of signals of ADMA” value [1] was “higher than 25 μM”.

In the case of CC(C)(C)c1ccc(S(=O)(=O)/C=C/C#N)cc1 [Bay 11-7085], the “concentration leading to decline of signals of ADMA” value [1] is reported as “higher than 25 μM”.

CN(C)C/C=C/C(=O)Nc1cc2c(Nc3ccc(F)c(Cl)c3)ncnc2cc1O[C@H]1CCOC1 [afatinib] was tested, and the cell cycle behavior (CHO cells) was “did not affect”, the “tumor lesions after treatment” value (PC-9 cells) was “one tumor lesion was vanishing” and the “levels of γ-H2AX” value (γ-H2AX) was “increase the levels of γ-H2AX”. The RRM2 protein levels (RRM2 [2]) was “decreasing RRM2 protein levels in a dose-response manner”, the “RRM1 response to treatment” value (RRM1 [3]) was “relatively resistant” and the “protein level of RRM2” value (RRM2 [4]; 48 h, 100 nM and 1 μM) was “significantly reduced”. The “protein levels of RRM2” value (RRM2 [4]; 72 h, daily medium replacement, dose-response) was “decrease the protein levels of RRM1 and RRM2”, the “protein levels of RRM1” value (RRM1 [5]) was “decrease the protein levels of RRM1 and RRM2” and the “modification of RRM1 protein” value (RRM1 [6]) was “apparently modified”. The “modification of RRM2 protein” value (RRM2 [7]) was “slightly modified” and the “production of dCDP (RNR activity)” value (ribonucleotide reductase) was “potently inhibited”.
